We go through seven molecules from US20210246195A1.

Experiment [1] has as its target Ara h 3 (purified natural peanut allergen) (Arachis hypogaea). The experiment in a line: BLI, scatter plot of KDs.
Experiment [2] has the same target. Nature of the experiment: biolayer interferometry. Background: Biolayer interferometry detects binding as a change in optical thickness at a sensor tip.
Experiment [3] shares this target. Nature of the experiment: biolayer interferometry (FIG. 4C).
Experiment [4] has the same target. Nature of the experiment: not named there (biolayer interferometry in Example 1).

Residue numbers refer to the chain shown, from its start. These are yes or no findings as the source states them, for the method shown. Binding can be weak; no strength is given.

B1: PA12P3D08 (antibody, human IgG1, V domains shown)
VH: QVQLVESGGGVVQPGKSLRLSCAASAFTFRRFAMHWVRQAPGKGLEWVAVISDNGLREDYEDSVKGRFTISRDNSQNTLYLQMNGLRAEDTAVYYCAKVLDYNEYSLYFGMDVWGQGTTVTVSS
VL: EVVLTQSPATLSLSPGERATLSCRTSQAISNNFLAWYQQRPGQPPRLLIYASSRRATDTPDRFTGSGSGTDFTLTITRLEPEDFAVYFCQYYSDSPPYTFGPGTKLEIK
For the molecule B1, the binding entry in experiment [1] is given as “binds”.

B2: PA12P1C07 (antibody, human IgG1, V domains shown)
VH: B1 VH with V5E, A23V, R30K, Q76K, N77D, G85S, A88P, V93I, N103S, T121L
VL: EIVLTQSPAILSLSPGDRATLSCRTSQTVNSNFLAWYQQKPGQAPRLLIYGASRRAIDIPDRFTGSGSGTEFTLTIARLEPEDFAVYSCQHYSDSPPYTFGQGTKLEIK
Take B2: in experiment [1], the binding entry is “binds”.

B3: PA15P1D05 (antibody, human IgG1, V domains shown)
VH: QVHLVESGGGVVQPGRSLGLSCVASGFTFNYYAIHWVRQAPGKGLEWVAVVSFDGNIIYYADSVKGRFNISRDNSKNTVNLQMNSLRPDDTAVYYCVRDGEYCSGGNCYWGDFDHWGQGSLVTVSP
VL: EIVLTQSPATLSLSPGERATLSCRASQSISSEYLTWFQQKPGQAPRLLIYGAFNRATGIPDRFSGSGSGTDFTLTISSLEPEDFAVYYCQQYANWWTFGQGTKVEIK
Turning to B3, the binding result in experiment [2] is given as “binds”.

B4: PA15P1D12 (antibody, human IgG1, V domains shown)
VH: B3 VH with V23A, P88A, H115Y, S120T
VL: B3 VL with A9G
For B4, in experiment [2], the binding entry was “binds”.

B5: PA13P1H08 variant rCDR1-N (antibody, human IgG1, V domains shown)
VH: QVQLVNSGGGVVQPGRSLRLSCVASGFTFSSYGIHWVRQAPGKGLEWVAVISNDGEKSESADSVKGRFTPSRDNSKNTVYLQMNNLRVEDTAVYYCAKVLDYSRYSYYYGMDVWGQGTTVIVSS
VL: EIVLTQSPGTLSLSPGGRGTLSCRTSQTINNAHLAWYQHKPGQAPRLLIYGSSERATGVPDRFSGSGSGSDFTLTISSLEAEDFAVYYCQHYGRSPPYTFGPGTKLDIK
As to B5, in experiment [1], the binding entry is listed as “binds”.

B6: PA13P1H08 variant rCDR2-N (antibody, human IgG1, V domains shown)
VH: B5 VH with S31T, Y32F, N53Y, E56S, K57N, S58K
VL: B5 VL
Turning to B6, the binding entry in experiment [3], in experiment [4] and in experiment [1] was “binds” throughout.

B7: PA13P1H08 variant rFWRs-N (antibody, human IgG1, V domains shown)
VH: QVQLVESGGGVVQPGRSLRLSCAASGFTFSTFGMHWVRQAPGKGLEWVAVISNDGEKSYYADSVKGRFTISRDNSKNTLYLQMNSLRAEDTAVYYCAKVLDYSRYSYYYGMDVWGQGTTVTVSS
VL: B5 VL
Consider B7, for which, in experiment [1], the binding result is listed as “binds”.
